PubChem BioAssay AID493246, Drosophila RNAi Screening Center | 2011

Assay: 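Genome-wide search for dsRNAs that reduce cell number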 (primary screen)
Cell system: Drosophila Kc and S2R+ cells
Reagents: long dsRNA against Drosophila genes
Measurement: 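Cell number per well after knock-down, printed as raw plate values; calls were based on per-plate z-scores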
Reading the numbers: Kc cell number and S2R+ cell number: higher = more cells remaining
Hit rule: 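Active when the per-plate z-score of cell number is 3 or more in the direction of fewer cells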
In all, the deposit lists about 21,000 reagents; below is an unselected part of those with a known target gene and a result. Of all reagents, 429 (2%) are marked active. 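Values are raw and not normalised between plates; calls rest on per-plate z-scores that were not deposited.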 The numbers tell different reagents against one gene apart. Names joined by + are all predicted targets of the reagent. Not given: the amount of reagent, the time to read-out.

target | dsRNA no. | Kc cell number, rep 1 | Kc cell number, rep 2 | S2R+ cell number, rep 1 | S2R+ cell number, rep 2 | Call
Nup58 | 1 | 1.31e6 | 1.27e6 | 9.79e5 | 1.09e6 | inactive
Blimp-1 | 1 | 1.44e6 | 1.53e6 | 1.25e6 | 1.26e6 | inactive
lectin-46Cb | 1 | 1.78e6 | 1.84e6 | 1.26e6 | 1.52e6 | inactive
Trf | 1 | 1.50e6 | 1.56e6 | 1.16e6 | 1.29e6 | inactive
CG10681 | 1 | 1.47e6 | 1.51e6 | 1.33e6 | 1.31e6 | inactive
Vps50 | 1 | 1.37e6 | 1.46e6 | 1.25e6 | 1.18e6 | inactive
CG14330 | 1 | 1.24e6 | 1.28e6 | 1.17e6 | 1.30e6 | inactive
EMC2B + EMC2A | 1 | 1.45e6 | 1.49e6 | 1.20e6 | 1.35e6 | inactive
CG31782 (retired record) | 1 | 1.41e6 | 1.62e6 | 9.36e5 | 1.19e6 | inactive
CG31782 (retired record) | 2 | 1.64e6 | 1.66e6 | 9.35e5 | 1.17e6 | inactive
CG31612 | 1 | 1.65e6 | 1.67e6 | 1.22e6 | 2.67e5 | inactive
CG31612 | 2 | 1.65e6 | 1.66e6 | 1.19e6 | 2.32e5 | inactive
CG3942 | 1 | 1.54e6 | 1.49e6 | 1.29e6 | 1.35e6 | inactive
CG4887 | 1 | 1.68e6 | 1.70e6 | 1.10e6 | 1.23e6 | inactive
Cyp4d20 | 1 | 1.55e6 | 1.50e6 | 1.01e6 | 1.44e6 | inactive
CG2694 | 1 | 5.38e5 | – | 8.79e5 | – | inactive
CG32236 | 1 | 1.44e6 | 1.39e6 | 9.94e5 | 1.19e6 | inactive
gek | 1 | 1.35e6 | 1.46e6 | 1.21e6 | 1.26e6 | inactive
Syx1A | 1 | 1.38e6 | 1.46e6 | 8.82e5 | 1.07e6 | inactive
tilB | 1 | 1.44e6 | 1.46e6 | 1.00e6 | 1.08e6 | inactive
CG30419 | 1 | 1.41e6 | 1.55e6 | 1.03e6 | 1.18e6 | inactive
CG30419 | 2 | 1.30e6 | 1.46e6 | 1.03e6 | 1.11e6 | inactive
CG31673 | 1 | 1.39e6 | 1.46e6 | 1.00e6 | 9.89e5 | inactive
Mcm2 | 1 | 1.99e6 | 2.23e6 | 1.24e6 | 1.41e6 | inactive
